Patent publication US20070257975A1, “Azo Compound, Ink Composition, and Colored Object” (priority 2004, published 2007)

Key:
[1] = Bronzing property, surface observation of maximum-density printed part on special glossy paper
[2] = Ejection property on thermal-head inkjet printer (BJ-S630), continuous printing on plain paper; conditions: printer having a thermal head

SMILES | Bronzing (in words) [1] | Ejection property (in words) [2]
Cc1cc(Nc2nc(NCCS(=O)(=O)O)nc(Nc3ccc(N=Nc4ccc(N=Nc5ccc(S(=O)(=O)O)cc5)cc4S(=O)(=O)O)c(C)c3)n2)ccc1N=Nc1ccc(N=Nc2ccc(S(=O)(=O)O)cc2)cc1S(=O)(=O)O [Example 1] | do not give rise to bronzing | good
Cc1cc(Nc2nc(Nc3ccc(N=Nc4ccc(N=Nc5ccc(S(=O)(=O)O)cc5)cc4S(=O)(=O)O)c(C)c3)nc(N(CC(=O)O)CC(=O)O)n2)ccc1N=Nc1ccc(N=Nc2ccc(S(=O)(=O)O)cc2)cc1S(=O)(=O)O [Example 2] | do not give rise to bronzing | good
